{"source": "the supplement of paper PMC8728848", "assay_in_all_cases": "glycan array binding signal (z-score within array); higher = stronger binding", "conditions_in_all_cases": "glycan notation: IUPAC condensed, linker removed", "key": {"[1]": {"molecular_target": "Neu5Ac(a2-6)GlcNAc(b1-4)GlcNAc(b1-4)GlcNAc", "in_short": "(§1)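 The Consortium for Functional Glycomics database supplied 3228 glycan arrays, of which those lacking an available protein sequence were dropped. The binding signal, a within-array Z-score, was averaged across arrays of the same protein sequence and across linkers. Negative scores can be read as non-binding.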"}, "Neu5Ac(a2-8)Neu5Ac": {"molecular_target": "Neu5Ac(a2-8)Neu5Ac", "in_short": "as §1"}, "[2]": {"molecular_target": "Neu5Ac(a2-8)Neu5Ac(a2-3)Gal(b1-3)GalNAc(b1-4)[Neu5Ac(a2-3)]Gal(b1-4)Glc", "in_short": "as §1"}, "[3]": {"molecular_target": "Neu5Ac(a2-8)Neu5Ac(a2-3)Gal(b1-3)GalNAc(b1-4)[Neu5Ac(a2-8)Neu5Ac(a2-3)]Gal(b1-4)Glc", "in_short": "as §1"}, "[4]": {"molecular_target": "Neu5Ac(a2-8)Neu5Ac(a2-3)Gal(b1-4)Glc", "in_short": "as §1"}, "[5]": {"molecular_target": "Neu5Ac(a2-8)Neu5Ac(a2-3)Gal(b1-4)GlcNAc", "in_short": "as §1"}, "[6]": {"molecular_target": "Neu5Ac(a2-8)Neu5Ac(a2-3)[Gal(b1-3)GalNAc(b1-4)]Gal(b1-4)Glc", "in_short": "as §1"}, "[7]": {"molecular_target": "Neu5Ac(a2-8)Neu5Ac(a2-3)[GalNAc(b1-4)]Gal(b1-4)Glc", "in_short": "as §1"}, "[8]": {"molecular_target": "Neu5Ac(a2-8)Neu5Ac(a2-8)Neu5Ac", "in_short": "as §1"}, "[9]": {"molecular_target": "Neu5Ac(a2-8)Neu5Ac(a2-8)Neu5Ac(a2-3)Gal(b1-4)Glc", "in_short": "as §1"}, "[10]": {"molecular_target": "Neu5Ac(a2-8)Neu5Ac(a2-8)Neu5Ac(a2-3)[Gal(b1-3)GalNAc(b1-4)]Gal(b1-4)Glc", "in_short": "as §1"}, "[11]": {"molecular_target": "Neu5Ac(a2-8)Neu5Ac(a2-8)Neu5Ac(a2-3)[GalNAc(b1-4)]Gal(b1-4)Glc", "in_short": "as §1"}, "[12]": {"molecular_target": "Neu5Ac(a2-8)Neu5Ac(a2-8)Neu5Ac(a2-8)Neu5Ac(a2-3)[GalNAc(b1-4)]Gal(b1-4)Glc", "in_short": "as §1"}, "[13]": {"molecular_target": "Neu5Ac(a2-8)Neu5Gc(a2-3)Gal(b1-4)GlcNAc", "in_short": "as §1"}, "[14]": {"molecular_target": "Neu5Ac(b2-6)Gal(b1-4)GlcNAc", "in_short": "as §1"}, "Neu5Ac(b2-6)GalNAc": {"molecular_target": "Neu5Ac(b2-6)GalNAc", "in_short": "as §1"}, "[15]": {"molecular_target": "Neu5Ac9Ac(a2-3)Gal(b1-3)GlcNAc", "in_short": "as §1"}, "[16]": {"molecular_target": "Neu5Ac9Ac(a2-3)Gal(b1-4)GlcNAc", "in_short": "as §1"}, "[17]": {"molecular_target": "Neu5Ac9Ac(a2-6)Gal(b1-4)GlcNAc", "in_short": "as §1"}, "[18]": {"molecular_target": "Neu5Gc(a2-3)Gal(b1-3)GlcNAc", "in_short": "as §1"}, "[19]": {"molecular_target": "Neu5Gc(a2-3)Gal(b1-3)[Fuc(a1-4)]GlcNAc", "in_short": "as §1"}, "Neu5Gc(a2-3)Gal(b1-4)Glc": {"molecular_target": "Neu5Gc(a2-3)Gal(b1-4)Glc", "in_short": "as §1"}, "[20]": {"molecular_target": "Neu5Gc(a2-3)Gal(b1-4)GlcNAc", "in_short": "as §1"}, "[21]": {"molecular_target": "Neu5Gc(a2-3)Gal(b1-4)GlcNAc(b1-3)Gal(b1-4)GlcNAc(b1-2)Man(a1-3)[Neu5Gc(a2-3)Gal(b1-4)GlcNAc(b1-3)Gal(b1-4)GlcNAc(b1-2)Man(a1-6)]Man(b1-4)GlcNAc(b1-4)GlcNAc", "in_short": "as §1"}, "[22]": {"molecular_target": "Neu5Gc(a2-3)Gal(b1-4)[Fuc(a1-3)]GlcNAc", "in_short": "as §1"}, "[23]": {"molecular_target": "Neu5Gc(a2-6)Gal(b1-4)GlcNAc", "in_short": "as §1"}, "Neu5Gc(a2-6)GalNAc": {"molecular_target": "Neu5Gc(a2-6)GalNAc", "in_short": "as §1"}, "[24]": {"molecular_target": "Neu5Gc(a2-8)Neu5Ac(a2-3)Gal(b1-4)GlcNAc", "in_short": "as §1"}, "[25]": {"molecular_target": "Neu5Gc(a2-8)Neu5Gc(a2-3)Gal(b1-4)GlcNAc", "in_short": "as §1"}, "[26]": {"molecular_target": "Neu5Gc(a2-8)Neu5Gc(a2-3)Gal(b1-4)GlcNAc(b1-3)Gal(b1-4)GlcNAc", "in_short": "as §1"}}, "note": "This is one part of the list."}
{"binder": "CcfD (Bacteroides vulgatus), A6KYX8 (protein) MKYKNYFKSIIYLALGAFTLGSCEDFLDRQEDEKLTFDKIWESRNTTQQYWLNAMSFLPNENGSLQGDTEPYLGASDECTIAYDRQYRWINFGTWNPSQVPYYKMDHYYKGIRECNIFLQNVYKCSDPLVTKDQLDEWYWQTRFARAYYYFLMMRDYGPVFLLGDDLLDFTASTEELYRPRNTWDQCVNYVVSEMTQCAESGVVLQQSDLPAAKWGLATVGTCHAVISRLLLYSARPLFNGNKLYSTVKNPDAPDFPELSGVKLFPELDNTKWQKAAEAAKKLIDNPCYELYRAGNDNPYEDYYGVTHETWNKELIWTDRYNGLFSWGVGTVPTGVAGTAYGAVGPTQALVDAYAMNTGWYPITGYEADGTPIVEPLSGYELASELEKSSWIYPSGGWSNKADFEIEAPNMYKDREPRFYVTVFFGGNQWLHGNSATSISFAKGGNGNKSHDYPKSGYLCNRFYDHKLNSSEGQWGNITFPVFRLGEIYLNFIEAVLECKKNGVALDPSYEALAMEKWADLRKRAGLDPITSIYGQVSTEELIQLCRKERQIELAFERHRYFDTRTWMIATQTDNGKMYGMNTSCPLDAGMKGTETPDGFWERTAFETRVFQNKHYLYPFSQRELDRNKLLTQNYGW", "values": [{"measurement": "glycan array binding signal (z-score)", "setting": "[1]", "value": 0.328}, {"measurement": "glycan array binding signal (z-score)", "setting": "Neu5Ac(a2-8)Neu5Ac", "value": -0.409}, {"measurement": "glycan array binding signal (z-score)", "setting": "[2]", "value": 0.801}, {"measurement": "glycan array binding signal (z-score)", "setting": "[3]", "value": 1.2}, {"measurement": "glycan array binding signal (z-score)", "setting": "[4]", "value": -1.16}, {"measurement": "glycan array binding signal (z-score)", "setting": "[5]", "value": 0.521}, {"measurement": "glycan array binding signal (z-score)", "setting": "[6]", "value": -0.708}, {"measurement": "glycan array binding signal (z-score)", "setting": "[7]", "value": -0.566}, {"measurement": "glycan array binding signal (z-score)", "setting": "[8]", "value": 0.331}, {"measurement": "glycan array binding signal (z-score)", "setting": "[9]", "value": -0.871}, {"measurement": "glycan array binding signal (z-score)", "setting": "[10]", "value": -0.454}, {"measurement": "glycan array binding signal (z-score)", "setting": "[11]", "value": -0.556}, {"measurement": "glycan array binding signal (z-score)", "setting": "[12]", "value": -0.256}, {"measurement": "glycan array binding signal (z-score)", "setting": "[13]", "value": -0.891}, {"measurement": "glycan array binding signal (z-score)", "setting": "[14]", "value": -0.256}, {"measurement": "glycan array binding signal (z-score)", "setting": "Neu5Ac(b2-6)GalNAc", "value": -0.993}, {"measurement": "glycan array binding signal (z-score)", "setting": "[15]", "value": -0.5}, {"measurement": "glycan array binding signal (z-score)", "setting": "[16]", "value": -0.688}, {"measurement": "glycan array binding signal (z-score)", "setting": "[17]", "value": -0.256}, {"measurement": "glycan array binding signal (z-score)", "setting": "[18]", "value": -1.3}, {"measurement": "glycan array binding signal (z-score)", "setting": "[19]", "value": 0.298}, {"measurement": "glycan array binding signal (z-score)", "setting": "Neu5Gc(a2-3)Gal(b1-4)Glc", "value": -0.912}, {"measurement": "glycan array binding signal (z-score)", "setting": "[20]", "value": -0.429}, {"measurement": "glycan array binding signal (z-score)", "setting": "[21]", "value": 1.59}, {"measurement": "glycan array binding signal (z-score)", "setting": "[22]", "value": -0.373}, {"measurement": "glycan array binding signal (z-score)", "setting": "[23]", "value": 0.486}, {"measurement": "glycan array binding signal (z-score)", "setting": "Neu5Gc(a2-6)GalNAc", "value": -0.825}, {"measurement": "glycan array binding signal (z-score)", "setting": "[24]", "value": -0.815}, {"measurement": "glycan array binding signal (z-score)", "setting": "[25]", "value": -0.998}, {"measurement": "glycan array binding signal (z-score)", "setting": "[26]", "value": 0.979}]}
